Reference: PubChem BioAssay AID743121 (NCATS, 2013)

- Purpose: 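Knock-downs that sensitise breast cancer cells to camptothecin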 (primary screen)
- System: MDA-MB-231 cells, a human breast cancer line
- Knock-down reagent: single siRNA against human genes, 20 nM siRNA (0.8 pmol per well)
- Time to read-out: 120 h (drug added 48 h after transfection, read 72 h later)
- Conditions: camptothecin 20 nM (about EC30) for 72 h; vehicle 0.1% DMSO in parallel plates
- Read-out: 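Cell viability by ATP luminescence (CellTiter-Glo) as % of non-targeting siRNA wells, and the log2 ratio of viability without drug over viability with camptothecin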
- Direction: log2 vehicle/camptothecin viability: higher = stronger sensitisation to camptothecin
- Hit rule: 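Active genes have an RSA gene-level p-value below 0.001, computed from the ratios of their separate siRNAs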
In all, the deposit lists about 26,000 reagents; shown is a part drawn at random. 167 of them (0.63%) were called active. 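Calls are per gene from RSA p-values that are not deposited; an individual active-marked siRNA can sensitise only weakly.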 The numbers tell different reagents against one gene apart. Further read-outs or replicates are left out here.

CYP4F11 #1: log2 vehicle/camptothecin viability = 0.137; call = inactive
CYP4F11 #2: log2 vehicle/camptothecin viability = 0.321; call = inactive
CYP4F11 #3: log2 vehicle/camptothecin viability = 0.184; call = inactive
CYP4F11 #4: log2 vehicle/camptothecin viability = -0.0703; call = inactive
MC3R #1: log2 vehicle/camptothecin viability = -0.163; call = inactive
MC3R #2: log2 vehicle/camptothecin viability = 0.429; call = inactive
MC3R #3: log2 vehicle/camptothecin viability = -0.614; call = inactive
MC3R #4: log2 vehicle/camptothecin viability = -0.433; call = inactive
C8B #1: log2 vehicle/camptothecin viability = -0.023; call = inactive
C8B #2: log2 vehicle/camptothecin viability = -0.15; call = inactive
C8B #3: log2 vehicle/camptothecin viability = -0.063; call = inactive
C8B #4: log2 vehicle/camptothecin viability = 0.0613; call = inactive
FKBP3 #1: log2 vehicle/camptothecin viability = -0.17; call = inactive
FKBP3 #2: log2 vehicle/camptothecin viability = -0.386; call = inactive
FKBP3 #3: log2 vehicle/camptothecin viability = -0.439; call = inactive

Sorted by “log2 vehicle/camptothecin viability” (high to low): 2 of the entries above
FKBP3 #1: log2 vehicle/camptothecin viability = -0.17; call = inactive
FKBP3 #2: log2 vehicle/camptothecin viability = -0.386; call = inactive
